# In patent US8193361B2, “I-alkynyl 2-aryloxyalkylamides and their use as fungicides” (Syngenta Limited, priority 2004, dated 2012):
# Some of these results come from one statement about several compounds together. For some assays here: At least one structure is not confirmed: it was looked up by name or label, or the drawing left a doubt.
# Assays:
# [1] = test system: Pythium ultimum; assay: Pythium ultimum (damping off) growth inhibition in potato dextrose broth, 96-well plate; type: cell-based; conditions: 20 ppm; inhibition of growth determined photometrically after 48 hours at 24° C.
# [2] = test system: Phytophthora infestans; type: in vivo; conditions: 200 ppm; tomato leaf disks; assessed four days after inoculation
# [3] = test system: Plasmopara viticola; assay: Leaf disk assay, Plasmopara viticola (downy mildew of grapevine), preventive; type: in vivo; conditions: 200 ppm; grapevine leaf disks; assessed seven days after inoculation
# [4] = test system: Erysiphe graminis f. sp. tritici; assay: Leaf disk assay, Erysiphe graminis f. sp. tritici (wheat powdery mildew), preventive; type: in vivo; conditions: 200 ppm; wheat leaf segments; assessed four days after inoculation
# [5] = test system: Septoria nodorum; assay: Leaf disk assay, Septoria nodorum (wheat glume blotch), preventive; type: in vivo; conditions: 200 ppm; wheat leaf segments; assessed four days after inoculation
# [6] = test system: Erysiphe graminis f. sp. hordei; assay: Leaf disk assay, Erysiphe graminis f. sp. hordei (barley powdery mildew), preventive; type: in vivo; conditions: 200 ppm; barley leaf segments; assessed four days after inoculation
# [7] = test system: Botrytis cinerea; assay: Leaf disk assay, Botrytis cinerea (grey mould), preventive; type: in vivo; conditions: 200 ppm; bean leaf disks; assessed four days after inoculation
Structure (SMILES),control of fungal infection [1],control of fungal infection [2],control of fungal infection [3],control of fungal infection [4],control of fungal infection [5],control of fungal infection [6],control of fungal infection [7]
C#CC(C)(C)NC(=O)C(Oc1ccc2occc2c1)SC (centres unmarked) [1 (10)],at least 60%,at least 60%,at least 60%,–,–,–,–
C#CC(C)(C)NC(=O)C(Oc1ccc2oc3ccccc3c2c1)SC (centres unmarked) [1 (16)],–,–,–,at least 60%,at least 60%,at least 60%,–
C#CC(C)(C)NC(=O)C(Oc1ccc2c(c1)CCCC2)SC (centres unmarked) [1 (21)],–,–,at least 60%,–,–,–,–
"CC#CC(C)(C)NC(=O)C(Oc1ccc2c(c1)CCC2)SC (centres unmarked) [4 (2), 2-(indanyl-5-oxy)-2-methylthio-N-(2-methylpent-3-yn-2-yl)acetamide]",at least 60%,at least 60%,at least 60%,–,–,–,–
"CC#CC(C)(C)NC(=O)C(Oc1ccc2oc(=O)sc2c1)SC (centres unmarked) [4 (7), 5-(2-oxo-1,3-benzoxathiolyl)-2-methylthio-N-(2-methylpent-3-yn-2-yl)acetamide]",at least 60%,at least 60%,at least 60%,–,–,–,–
CC#CC(C)(C)NC(=O)C(Oc1ccc2occc2c1)SC (centres unmarked) [4 (10)],at least 60%,at least 60%,at least 60%,–,–,–,–
CC#CC(C)(C)NC(=O)C(Oc1ccc2occ(C)c2c1)SC (centres unmarked) [4 (12)],–,at least 60%,at least 60%,at least 60%,–,–,at least 60%
CC#CC(C)(C)NC(=O)C(Oc1ccc2sccc2c1)SC (centres unmarked) [4 (13)],at least 60%,at least 60%,at least 60%,–,–,–,at least 60%
"CC#CC(C)(C)NC(=O)C(Oc1ccc2oc3ccccc3c2c1)SC (centres unmarked) [4 (16), 2-(dibenzofuranyl-2-oxy)-2-methylthio-N-(2-methylpent-3-yn-2-yl)acetamide]",–,–,–,at least 60%,at least 60%,at least 60%,at least 60%
CC#CC(C)(C)NC(=O)C(Oc1ccc2oc3cccc(Cl)c3c2c1)SC (centres unmarked) [4 (19)],–,–,–,–,–,–,at least 60%
"CC#CC(C)(C)NC(=O)C(Oc1ccc2sc3ccccc3c2c1)SC (centres unmarked) [4 (20), 2-(dibenzothienyl-2-oxy)-2-methylthio-N-(2-methylpent-3-yn-2-yl)acetamide]",–,–,–,–,–,at least 60%,at least 60%
CC#CC(C)(C)NC(=O)C(Oc1ccc2c(c1)CCCC2)SC (centres unmarked) [4 (21)],–,at least 60%,at least 60%,–,–,at least 60%,–
"CC#CC(C)(C)NC(=O)C(Oc1ccc2ncc(-c3ccccc3)cc2c1)SC (centres unmarked) [4 (22), 2-(3-phenylquinolinyl-6-oxy)-2-methylthio-N-(2-methylpent-3-yn-2-yl)acetamide]",–,–,–,–,at least 60%,–,–
CC#CC(C)(C)NC(=O)C(Oc1ccc2ccoc2c1)SC (centres unmarked) [4 (24A)],at least 60%,at least 60%,at least 60%,–,–,–,–
CC#CC(C)(C)NC(=O)C(Oc1ccc2ccsc2c1)SC (centres unmarked) [4 (24B)],at least 60%,at least 60%,at least 60%,–,–,–,–
CC#CC(C)(CC)NC(=O)C(Oc1ccc2oc3ccccc3c2c1)SC (centres unmarked) [5 (16)],–,–,–,–,–,at least 60%,at least 60%
COCC#CC(C)(C)NC(=O)C(Oc1ccc2oc3ccccc3c2c1)SC (centres unmarked) [7 (16)],at least 60%,–,–,at least 60%,at least 60%,at least 60%,–
COCC#CC(C)(C)NC(=O)C(Oc1ccc2oc3cccc(Cl)c3c2c1)SC (centres unmarked) [7(19)],–,–,–,–,–,at least 60%,at least 60%
COCCC#CC(C)(C)NC(=O)C(Oc1ccc2oc3cccc(Cl)c3c2c1)SC (centres unmarked) [8(19)],–,–,–,–,–,–,at least 60%
